Our source for the binding values is article PMC9045647.

By UniProt entry, the sequences of proteins in these tests, tags left out.
UniProt O53166: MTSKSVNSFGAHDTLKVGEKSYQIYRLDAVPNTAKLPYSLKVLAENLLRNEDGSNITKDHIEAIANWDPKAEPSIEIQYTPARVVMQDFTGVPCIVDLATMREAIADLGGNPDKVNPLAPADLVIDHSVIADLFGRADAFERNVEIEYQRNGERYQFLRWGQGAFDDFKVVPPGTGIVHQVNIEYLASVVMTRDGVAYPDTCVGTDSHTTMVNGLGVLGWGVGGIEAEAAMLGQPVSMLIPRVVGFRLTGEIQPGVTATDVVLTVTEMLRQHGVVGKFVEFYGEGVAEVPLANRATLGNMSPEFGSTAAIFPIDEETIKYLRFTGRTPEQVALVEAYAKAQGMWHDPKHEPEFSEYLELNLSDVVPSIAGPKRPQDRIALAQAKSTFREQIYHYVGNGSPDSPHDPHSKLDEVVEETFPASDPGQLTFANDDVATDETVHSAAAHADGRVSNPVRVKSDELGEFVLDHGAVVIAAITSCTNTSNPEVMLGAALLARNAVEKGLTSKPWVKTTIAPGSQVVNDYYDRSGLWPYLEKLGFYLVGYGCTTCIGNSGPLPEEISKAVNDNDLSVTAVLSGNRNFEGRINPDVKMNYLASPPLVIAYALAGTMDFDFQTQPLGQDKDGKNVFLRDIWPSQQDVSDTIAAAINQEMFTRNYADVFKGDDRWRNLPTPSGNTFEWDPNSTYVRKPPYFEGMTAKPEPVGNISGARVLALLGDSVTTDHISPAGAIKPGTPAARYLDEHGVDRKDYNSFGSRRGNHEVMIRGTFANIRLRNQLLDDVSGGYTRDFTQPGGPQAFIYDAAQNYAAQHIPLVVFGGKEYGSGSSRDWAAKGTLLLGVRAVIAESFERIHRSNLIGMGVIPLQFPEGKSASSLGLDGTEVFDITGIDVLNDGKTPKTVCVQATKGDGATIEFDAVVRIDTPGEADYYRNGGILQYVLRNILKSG

This test addresses T1, SufT (Rv1466), endogenous in Mtb (Mycobacterium tuberculosis (endogenous in Mtb H37Rv-derived strains)) (UniProt O53157).
T1 sequence: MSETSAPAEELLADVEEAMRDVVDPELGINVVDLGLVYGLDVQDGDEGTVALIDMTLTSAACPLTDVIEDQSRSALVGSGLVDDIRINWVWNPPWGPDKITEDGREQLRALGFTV
As to the kind of experiment: co-IP.

These are yes or no findings as the source states them, for the method shown. In cells and extracts the contact can be indirect. Some results given as binding are weak or reduced against the parent protein; the word gives no strength. Tags and fused reporters may be left off the sequences shown.

Regarding “aconitase (Acn), endogenous in Mtb (from UniProt O53166 1-943) (enzyme)”, the binding result is given as “binds”.
